No constants are given. Whether binding was seen depends on the method and setting. Binding seen in cells or lysates may run through a third protein. Some binding calls cover weakened binding; strength is not graded here.
Each substance was assayed against receptor-interacting protein kinase (RIPK) 1 (human (endogenous in monocyte derived macrophages)) (UniProt Q13546) (assay: co-IP).

Sequences of proteins named here, by UniProt entry; tags and fusion partners are left off. A change or cut given only in a name is not applied to a line headed by its entry.
UniProt Q13546: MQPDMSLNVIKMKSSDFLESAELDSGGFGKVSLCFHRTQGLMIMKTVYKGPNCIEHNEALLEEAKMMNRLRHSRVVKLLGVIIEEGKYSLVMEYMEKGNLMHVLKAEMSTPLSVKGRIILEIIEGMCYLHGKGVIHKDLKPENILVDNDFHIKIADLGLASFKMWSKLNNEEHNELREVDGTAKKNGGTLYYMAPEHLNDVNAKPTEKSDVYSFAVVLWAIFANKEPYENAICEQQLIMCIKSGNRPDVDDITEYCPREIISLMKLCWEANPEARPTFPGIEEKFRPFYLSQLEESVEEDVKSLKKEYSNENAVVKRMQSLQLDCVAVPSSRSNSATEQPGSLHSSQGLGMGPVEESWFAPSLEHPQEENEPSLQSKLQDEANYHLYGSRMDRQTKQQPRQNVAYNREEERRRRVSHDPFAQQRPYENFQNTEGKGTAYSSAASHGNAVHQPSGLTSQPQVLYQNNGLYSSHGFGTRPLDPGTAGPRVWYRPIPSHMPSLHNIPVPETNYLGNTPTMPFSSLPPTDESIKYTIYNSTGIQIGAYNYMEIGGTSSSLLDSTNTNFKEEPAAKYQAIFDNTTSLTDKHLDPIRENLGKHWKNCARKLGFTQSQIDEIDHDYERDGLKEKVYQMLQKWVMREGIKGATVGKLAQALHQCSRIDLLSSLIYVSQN
UniProt Q9H1Y0: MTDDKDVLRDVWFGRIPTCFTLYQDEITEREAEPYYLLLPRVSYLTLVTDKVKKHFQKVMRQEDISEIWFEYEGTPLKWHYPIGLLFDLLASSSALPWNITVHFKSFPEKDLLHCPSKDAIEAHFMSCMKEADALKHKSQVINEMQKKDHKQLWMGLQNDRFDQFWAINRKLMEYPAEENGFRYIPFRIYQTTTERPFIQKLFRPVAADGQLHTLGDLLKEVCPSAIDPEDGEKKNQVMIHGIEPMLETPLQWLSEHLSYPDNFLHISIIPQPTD
UniProt Q9Y572: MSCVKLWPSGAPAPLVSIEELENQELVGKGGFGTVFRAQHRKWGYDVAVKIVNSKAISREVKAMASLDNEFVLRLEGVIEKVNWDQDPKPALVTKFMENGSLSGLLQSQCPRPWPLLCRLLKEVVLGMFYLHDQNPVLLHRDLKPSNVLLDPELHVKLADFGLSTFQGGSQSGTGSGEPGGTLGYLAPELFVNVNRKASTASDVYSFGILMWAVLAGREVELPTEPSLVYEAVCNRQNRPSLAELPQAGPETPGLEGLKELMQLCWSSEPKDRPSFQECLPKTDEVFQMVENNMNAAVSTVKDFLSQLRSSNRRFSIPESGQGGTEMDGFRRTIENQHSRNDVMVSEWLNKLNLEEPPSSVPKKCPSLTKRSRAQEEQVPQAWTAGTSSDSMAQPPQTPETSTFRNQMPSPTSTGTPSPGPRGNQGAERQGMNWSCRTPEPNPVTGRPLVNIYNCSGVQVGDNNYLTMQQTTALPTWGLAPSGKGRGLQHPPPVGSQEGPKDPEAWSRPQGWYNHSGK

| binding | Substance |
| --- | --- |
| binds | ATG12–ATG5 complex (from UniProt Q9H1Y0 1-275; O94817 1-140) |
| binds | receptor-interacting protein kinase (RIPK) 3 (from UniProt Q9Y572 1-518) |
| binds | sequestosome 1 (from UniProt Q13501 1-440) |
